Experimental data as given in US20100105874A1.
Results are given in words; binding and its absence hold for the method and conditions named. Some binding calls cover weakened binding; strength is not graded here.

Chains of the proteins cited; added tags and fusions are not shown. Lines headed by an entry give the natural chain unless they say otherwise; changes in a name come on top.
UniProt P30440: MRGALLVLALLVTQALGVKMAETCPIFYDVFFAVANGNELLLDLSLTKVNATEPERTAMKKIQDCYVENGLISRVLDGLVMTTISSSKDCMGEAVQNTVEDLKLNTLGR

Columns and labels:
Bet v 1 (birch) [1] = molecular target: T1, Bet v 1 (birch) (UniProt P15494); experiment: cross-linking radioassay (Sepharose-coupled cat extract, 125I-Bet v 1) on Superdex200 fractions, IgG4 mix incubated with erythrocyte lysate
T1 sequence (125I label where used as the soluble tracer, looked up): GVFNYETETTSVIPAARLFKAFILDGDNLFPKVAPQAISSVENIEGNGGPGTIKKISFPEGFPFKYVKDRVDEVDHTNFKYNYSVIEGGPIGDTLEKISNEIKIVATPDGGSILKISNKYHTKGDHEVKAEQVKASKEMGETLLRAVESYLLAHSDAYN

Fel d 1 (cat) [2] = molecular target: T2, Fel d 1 (cat) (UniProt P30438+P30440); experiment: as above
Bet v 1 (birch) [3] = molecular target: T1, Bet v 1 (birch); experiment: cross-linking radioassay on Superdex200 fractions, IgG4 mix incubated with 0.5 mM GSH
Fel d 1 (cat) [4] = molecular target: T2, Fel d 1 (cat); experiment: as above
Bet v 1 (birch) [5] = molecular target: T1, Bet v 1 (birch); experiment: cross-linking radioassay on Superdex200 fractions, IgG4 mix incubated with whole blood components
Fel d 1 (cat) [6] = molecular target: T2, Fel d 1 (cat); experiment: as above
Bet v 1 (birch) [7] = molecular target: T1, Bet v 1 (birch); experiment: heterologous cross-linking assay (Fel d 1-Bet v 1) after 24 h with reducing agents
Fel d 1 (cat) [8] = molecular target: T2, Fel d 1 (cat); experiment: as above
Bet v 1 (birch) [9] = molecular target: T1, Bet v 1 (birch); experiment: heterologous cross-linking assay (Sepharose-coupled Fel d 1, 125I-Bet v 1), mouse plasma
Fel d 1 (cat) [10] = molecular target: T2, Fel d 1 (cat); experiment: as above
Bet v 1 (birch) [11] = molecular target: T1, Bet v 1 (birch); experiment: cross-linking radioassay on Superdex200 fractions, IgG4 mix incubated with erythrocytes for 72 h
Fel d 1 (cat) [12] = molecular target: T2, Fel d 1 (cat); experiment: as above
Bet v 1 (birch) [13] = molecular target: T1, Bet v 1 (birch); experiment: cross-linking radioassay on Superdex200 fractions of mouse plasma
Fel d 1 (cat) [14] = molecular target: T2, Fel d 1 (cat); experiment: as above
Bet v 1 (birch) [15] = molecular target: T1, Bet v 1 (birch); experiment: bispecific activity to Bet v 1 and Fel d 1 in SCID mouse plasma, cross-linking radioassay
Fel d 1 (cat) [16] = molecular target: T2, Fel d 1 (cat); experiment: as above
Bet v 1 (birch) [17] = molecular target: T1, Bet v 1 (birch); experiment: antigen binding test (protein G Sepharose, 125I-Bet v 1) on Superdex200 fractions, IgG4 mix with 0.5 mM GSH
Bet v 1 (birch) [18] = molecular target: T1, Bet v 1 (birch); experiment: antigen binding test (protein G Sepharose, 125I-Bet v 1) on Superdex200 fractions, IgG4 mix with erythrocyte lysate
Bet v 1 (birch) [19] = molecular target: T1, Bet v 1 (birch); experiment: antigen binding test (protein G Sepharose, 125I-Bet v 1)
Fel d 1 (cat) [20] = molecular target: T2, Fel d 1 (cat); experiment: antigen binding test (protein G Sepharose, 125I-Fel d 1) on Superdex200 fractions of plasma of a mouse dosed with the IgG4 mix
Fel d 1 (cat) [21] = molecular target: T2, Fel d 1 (cat); experiment: homologous cross-linking of 125I-Fel d 1 to Sepharose-immobilized Fel d 1, mouse plasma
Fel d 1 (cat) [22] = molecular target: T2, Fel d 1 (cat); experiment: homologous Fel d 1 cross-linking (bivalency) assay, incubation with erythrocytes

Measured: binding

B1: bispecific IgG4 (Bet v 1-Fel d 1) (bispecific antibody, V domains shown)
VH 1: EVQLQQSGAELVKPGASVKLSCTASGFNIKDTYIHWVKQRPEQGLEWVGRIDPATGNTRYDPKFQGKATITADTSSNTAYLQLSSLTSEDTAVYYCASFRPGYALDYWGQGTSVTVSS
VL 1: DIVMTQSHKFMSTSVGDRVSFTCKASQDVFTAVAWYQQKPGQSPKLLIYWASTRRTGVPDRFTGSGSGTDYTLTISSVQAEDLALYYCQQHFSTPPTFGGGTKLEIK
VH 2: QVQLQQPGAELVKPGASVKLSCKASGYSFTSYWMHWLKQRPGQGLEWIGEINPNNGRTYYNEKFKTKATLTVDKSSSTAYMQLNSLTSEDSAVYYCARRLTMVESFAYWGQGTLVTFSA
VL 2: DIVMTQSPSSLTVTAGEKVTMSCKSSQSLLNSGNQKNYLTWYQQKPGQPPKLLIYWASTRESGVPDRFTGSGSGTDFSLTISSVQAEDLAIYYCQNDYSYPFTFGSGTKLEIK
not listed: Bet v 1 (birch) [17] | Bet v 1 (birch) [18] | Bet v 1 (birch) [19] | Fel d 1 (cat) [20] | Fel d 1 (cat) [21] | Fel d 1 (cat) [22]
binds: all other assays above

B2: Betv1-IgG4 (antibody, V domains shown)
VH: EVQLQQSGAELVKPGASVKLSCTASGFNIKDTYIHWVKQRPEQGLEWVGRIDPATGNTRYDPKFQGKATITADTSSNTAYLQLSSLTSEDTAVYYCASFRPGYALDYWGQGTSVTVSS
VL: DIVMTQSHKFMSTSVGDRVSFTCKASQDVFTAVAWYQQKPGQSPKLLIYWASTRRTGVPDRFTGSGSGTDYTLTISSVQAEDLALYYCQQHFSTPPTFGGGTKLEIK
binds: Bet v 1 (birch) [17] | Bet v 1 (birch) [18]

B3: Betv1-IgG1 (antibody, V domains shown)
VH: EVQLQQSGAELVKPGASVKLSCTASGFNIKDTYIHWVKQRPEQGLEWVGRIDPATGNTRYDPKFQGKATITADTSSNTAYLQLSSLTSEDTAVYYCASFRPGYALDYWGQGTSVTVSS
VL: DIVMTQSHKFMSTSVGDRVSFTCKASQDVFTAVAWYQQKPGQSPKLLIYWASTRRTGVPDRFTGSGSGTDYTLTISSVQAEDLALYYCQQHFSTPPTFGGGTKLEIK
binds: Bet v 1 (birch) [19]

B4: Feld1-IgG4 (antibody, V domains shown)
VH: QVQLQQPGAELVKPGASVKLSCKASGYSFTSYWMHWLKQRPGQGLEWIGEINPNNGRTYYNEKFKTKATLTVDKSSSTAYMQLNSLTSEDSAVYYCARRLTMVESFAYWGQGTLVTFSA
VL: DIVMTQSPSSLTVTAGEKVTMSCKSSQSLLNSGNQKNYLTWYQQKPGQPPKLLIYWASTRESGVPDRFTGSGSGTDFSLTISSVQAEDLAIYYCQNDYSYPFTFGSGTKLEIK
binds: Fel d 1 (cat) [20] | Fel d 1 (cat) [21]

B5: Feld1-IgG1 (antibody, V domains shown)
VH: QVQLQQPGAELVKPGASVKLSCKASGYSFTSYWMHWLKQRPGQGLEWIGEINPNNGRTYYNEKFKTKATLTVDKSSSTAYMQLNSLTSEDSAVYYCARRLTMVESFAYWGQGTLVTFSA
VL: DIVMTQSPSSLTVTAGEKVTMSCKSSQSLLNSGNQKNYLTWYQQKPGQPPKLLIYWASTRESGVPDRFTGSGSGTDFSLTISSVQAEDLAIYYCQNDYSYPFTFGSGTKLEIK
binds: Fel d 1 (cat) [21] | Fel d 1 (cat) [22]
